Test results as given in publication PMC4196966.
No constants are given. Whether binding was seen depends on the method and setting. Binding seen in cells or lysates may run through a third protein. Some entries that bind do so weakly or less than the wild type.

Amino acid sequences for entries named in this document (tags omitted). Residues count along the entry.
UniProt P21802, residues 22-821: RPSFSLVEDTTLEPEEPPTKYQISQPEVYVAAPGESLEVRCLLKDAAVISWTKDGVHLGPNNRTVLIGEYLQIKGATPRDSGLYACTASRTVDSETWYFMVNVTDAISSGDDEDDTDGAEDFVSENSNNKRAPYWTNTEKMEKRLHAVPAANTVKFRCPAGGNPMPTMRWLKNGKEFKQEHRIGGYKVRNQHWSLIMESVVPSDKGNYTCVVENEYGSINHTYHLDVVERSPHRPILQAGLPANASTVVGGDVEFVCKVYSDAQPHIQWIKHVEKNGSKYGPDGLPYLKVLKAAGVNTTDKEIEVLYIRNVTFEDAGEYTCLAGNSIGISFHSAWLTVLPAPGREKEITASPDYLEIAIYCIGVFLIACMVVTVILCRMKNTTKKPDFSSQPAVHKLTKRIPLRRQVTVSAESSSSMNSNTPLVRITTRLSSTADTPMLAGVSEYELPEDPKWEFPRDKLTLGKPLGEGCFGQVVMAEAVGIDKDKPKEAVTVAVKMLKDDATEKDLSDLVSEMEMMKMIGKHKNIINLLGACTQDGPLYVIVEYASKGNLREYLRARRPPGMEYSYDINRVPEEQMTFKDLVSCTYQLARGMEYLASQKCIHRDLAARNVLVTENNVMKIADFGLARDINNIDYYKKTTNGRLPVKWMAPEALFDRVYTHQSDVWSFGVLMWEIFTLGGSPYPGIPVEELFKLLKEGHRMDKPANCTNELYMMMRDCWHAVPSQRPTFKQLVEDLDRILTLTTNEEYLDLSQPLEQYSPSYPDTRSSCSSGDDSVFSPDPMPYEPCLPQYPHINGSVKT

Columns and labels:
[1] = biological target: Fibroblast growth factor receptor 2 (FGFR2) (human (endogenous in U-251 MG)) (UniProt P21802); assay: cross-linking; U-251 MPI-shRNA knockdown clones, serum starved, stimulated with FGF-1 (50 ng/mL, 30 min); intact cells cross-linked with 4 mM BS3, lysed, FGFR2 immunoprecipitated (MAB6841), 7.5% SDS-PAGE and blot
[2] = biological target: Fibroblast growth factor receptor 2 (FGFR2) (human (endogenous in U-251 MG)) (UniProt P21802); assay: cross-linking; U-251 control cells, serum starved, with or without FGF-1 (50 ng/mL, 30 min); intact cells cross-linked with 4 mM BS3 (not cell permeable), lysed, FGFR2 immunoprecipitated (MAB6841), 7.5% SDS-PAGE and blot; monomer and dimer bands
[3] = biological target: Fibroblast growth factor receptor 2 (FGFR2) (human (endogenous in U-251 MG)) (UniProt P21802); assay: condition: only in MPI-shRNA knockdown cells, without FGF-1 stimulation; cross-linking; U-251 MPI-shRNA knockdown clones, serum starved, not stimulated; intact cells cross-linked with 4 mM BS3, lysed, FGFR2 immunoprecipitated (MAB6841), 7.5% SDS-PAGE and blot

binding [1]: binds weakly
binding [2]: binds
binding [3]: no binding
Substance: Fibroblast growth factor receptor 2 (FGFR2) (from UniProt P21802 22-821)
